Reference: US20170057995A1, “USE OF AROMATIC-CATIONIC PEPTIDES TO TREAT CHOLESTEROL-INDUCED MITOCHONDRIAL DYSFUNCTION” (CORNELL UNIVERSITY, priority 2013, published 2017)

Test system: cholesterol-cytochrome c complex
Experiment: Fluorescence emission spectrum of [ald]SS-31: interaction with cholesterol-cytochrome c complex
Assay type: binding

D-Arg-2′,6′-Dmt-Lys-Ald-NH2 [[ald]SS-31]
shift of emission spectrum of the peptide (in contact with both cholesterol and cytochrome c): no shift
emission λmax of the peptide (with 4 μM cytochrome c, no shift): 530 nm
emission λmax of the peptide (with 100 μM cholesterol, blue shift from 530 nm): 436 nm
